Source: paper doi:10.1101/740217
These are yes or no findings as the source states them, for the method shown. Binding seen in cells or lysates may run through a third protein. Some entries that bind do so weakly or less than the wild type. Tags and fused reporters may be left off the sequences shown.

Biological target: T1, FLAG-CEP97 (human Cep97, full length, 3xFLAG-tagged) (human (amplified from HEK293T cDNA)) (UniProt Q8IW35)
T1 sequence: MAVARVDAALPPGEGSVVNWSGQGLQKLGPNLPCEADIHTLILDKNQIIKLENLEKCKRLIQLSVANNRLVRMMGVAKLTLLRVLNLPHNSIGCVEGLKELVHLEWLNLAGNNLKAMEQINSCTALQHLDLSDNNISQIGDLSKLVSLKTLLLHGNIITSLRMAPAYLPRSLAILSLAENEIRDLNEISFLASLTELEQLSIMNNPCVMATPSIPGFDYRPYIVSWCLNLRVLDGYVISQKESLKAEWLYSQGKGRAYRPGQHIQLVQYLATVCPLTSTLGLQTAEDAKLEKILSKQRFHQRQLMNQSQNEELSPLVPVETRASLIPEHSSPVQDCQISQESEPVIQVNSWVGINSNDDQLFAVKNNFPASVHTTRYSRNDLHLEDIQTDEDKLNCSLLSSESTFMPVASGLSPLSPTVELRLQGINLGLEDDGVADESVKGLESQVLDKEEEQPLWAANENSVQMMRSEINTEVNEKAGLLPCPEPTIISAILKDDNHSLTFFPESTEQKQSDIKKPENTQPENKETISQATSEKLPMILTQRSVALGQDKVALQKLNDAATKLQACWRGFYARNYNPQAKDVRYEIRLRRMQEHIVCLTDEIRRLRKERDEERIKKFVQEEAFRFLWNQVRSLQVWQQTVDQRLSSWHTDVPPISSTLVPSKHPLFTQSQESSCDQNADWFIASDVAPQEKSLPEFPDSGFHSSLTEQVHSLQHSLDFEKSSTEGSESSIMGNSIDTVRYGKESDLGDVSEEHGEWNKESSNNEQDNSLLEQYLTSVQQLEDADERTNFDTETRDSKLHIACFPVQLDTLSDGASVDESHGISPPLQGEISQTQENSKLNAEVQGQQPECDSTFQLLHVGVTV
Experiment: co-IP

binding: binds
B1: HA-SIRT2 (2xHA-tagged SIRT2) (protein, UniProt Q8IXJ6 1-389)
chain: MAEPDPSHPLETQAGKVQEAQDSDSDSEGGAAGGEADMDFLRNLFSQTLSLGSQKERLLDELTLEGVARYMQSERCRRVICLVGAGISTSAGIPDFRSPSTGLYDNLEKYHLPYPEAIFEISYFKKHPEPFFALAKELYPGQFKPTICHYFMRLLKDKGLLLRCYTQNIDTLERIAGLEQEDLVEAHGTFYTSHCVSASCRHEYPLSWMKEKIFSEVTPKCEDCQSLVKPDIVFFGESLPARFFSCMQSDFLKVDLLLVMGTSLQVQPFASLISKAPLSTPRLLINKEKAGQSDPFLGMIMGLGGGMDFDSKKAYRDVAWLGECDQGCLALAELLGWKKELEDLVRREHASIDAQSGAGVPNPSTSASPKKSPPPAKDEARTTEREKPQ
